# Source: article PMC3887067
# Protein sequences, listed by entry. Tags and fused reporters are not part of them.
# UniProt Q96AE4: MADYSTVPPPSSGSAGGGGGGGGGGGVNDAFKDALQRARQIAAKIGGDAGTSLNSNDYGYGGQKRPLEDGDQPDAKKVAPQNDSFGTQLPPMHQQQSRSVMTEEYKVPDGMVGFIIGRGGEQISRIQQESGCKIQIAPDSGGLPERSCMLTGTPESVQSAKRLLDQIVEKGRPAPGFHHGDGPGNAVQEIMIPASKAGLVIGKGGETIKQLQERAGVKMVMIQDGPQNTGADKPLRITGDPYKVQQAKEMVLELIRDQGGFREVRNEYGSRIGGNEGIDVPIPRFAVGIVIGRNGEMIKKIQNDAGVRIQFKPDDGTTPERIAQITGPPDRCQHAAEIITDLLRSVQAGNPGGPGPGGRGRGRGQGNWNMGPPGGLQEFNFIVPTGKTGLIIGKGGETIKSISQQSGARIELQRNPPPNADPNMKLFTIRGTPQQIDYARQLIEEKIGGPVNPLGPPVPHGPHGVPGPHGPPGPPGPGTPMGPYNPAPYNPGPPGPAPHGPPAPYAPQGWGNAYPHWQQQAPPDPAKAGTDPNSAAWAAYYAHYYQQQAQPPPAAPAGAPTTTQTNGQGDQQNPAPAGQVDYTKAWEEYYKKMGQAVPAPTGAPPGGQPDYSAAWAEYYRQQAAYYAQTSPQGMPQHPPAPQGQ
# UniProt Q92879: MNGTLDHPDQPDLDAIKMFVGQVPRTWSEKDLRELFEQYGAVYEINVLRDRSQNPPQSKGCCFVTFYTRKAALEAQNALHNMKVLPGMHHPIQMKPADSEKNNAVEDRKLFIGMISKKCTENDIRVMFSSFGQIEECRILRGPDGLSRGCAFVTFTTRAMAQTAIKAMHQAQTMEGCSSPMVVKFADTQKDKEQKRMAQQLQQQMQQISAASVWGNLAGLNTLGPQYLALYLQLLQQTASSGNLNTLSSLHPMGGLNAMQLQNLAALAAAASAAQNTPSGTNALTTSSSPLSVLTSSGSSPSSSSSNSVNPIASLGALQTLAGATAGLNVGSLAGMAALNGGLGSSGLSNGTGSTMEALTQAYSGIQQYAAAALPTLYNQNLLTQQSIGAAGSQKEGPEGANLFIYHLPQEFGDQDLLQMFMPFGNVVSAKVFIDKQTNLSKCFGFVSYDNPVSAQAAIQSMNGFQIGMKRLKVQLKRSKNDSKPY
# UniProt Q15717: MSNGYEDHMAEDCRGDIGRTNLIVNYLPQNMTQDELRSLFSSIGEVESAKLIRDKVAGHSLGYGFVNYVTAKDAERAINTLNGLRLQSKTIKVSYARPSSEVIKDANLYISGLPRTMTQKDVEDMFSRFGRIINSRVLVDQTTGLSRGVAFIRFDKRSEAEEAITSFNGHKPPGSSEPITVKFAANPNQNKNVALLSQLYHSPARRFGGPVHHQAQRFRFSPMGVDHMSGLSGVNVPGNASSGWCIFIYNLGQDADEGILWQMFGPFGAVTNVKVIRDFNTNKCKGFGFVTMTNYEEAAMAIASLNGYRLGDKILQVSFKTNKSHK
# No constants are given. Whether binding was seen depends on the method and setting. Binding seen in cells or lysates may run through a third protein. Some entries that bind do so weakly or less than the wild type.
# Biological target: peptidyl-prolyl cis/trans isomerase NIMA-interacting 1 (Pin1) (human (endogenous in HEK293T)) (UniProt Q13526)
# Assay: co-IP; endogenous Pin1 immunoprecipitated with anti-Pin1 antibody (anti-HA as control) from pre-cleared HEK293T lysate in RIPA buffer, Protein A/G magnetic beads, overnight at 4°C, with or without 10 μg/mL RNaseA; bound proteins detected by western blot
row,Substance,binding
1,FBP (from UniProt Q96AE4 1-644),no binding
2,Stem-Loop Binding Protein (SLBP) (from UniProt Q14493 1-270),binds
3,CUGBP (from UniProt Q92879 1-486),no binding
4,ELAV-like protein 1 or Human antigen R (HuR) (from UniProt Q15717 1-326),binds
